Source: patent US11649218B2, “C-Abl tyrosine kinase inhibitory compound embodiments and methods of making and using the same” (The USA, as represented by the Secretary, Dept. of Health …, priority 2018, dated 2023)

Test system: P. falciparum strain NF54 asexual parasites
Experiment: Asexual stage parasite growth inhibition, SYBR Green assay, 72 hours
Format: cell-based
Settings: Plasmodium falciparum; NF54, 72 hours
Experimental: In this example, several of the c-Abl inhibitors were tested in the asexual […] strain of P. falciparum parasites for activity against malaria. […] Drug activity in inhibiting growth of asexual stage parasites was tested using a SYBR Green assay as described previously (Eastman et al, Antimicrob. Agents. Chemother. 57:425-435, 2013; […] al., Antimicrob. Agents. Chemother. 48:1803-1806, 2004). […] The pre-diluted parasites were dispensed into a 1536-well plate (2.5 μL/well). […] The fluorescence of each well was measured at 520 nm following excitation at 490 nm using a ViewLux platereader (PerkinElmer).

Cc1ccc(NC(=O)c2ccc(CN3CCN(C)CC3)cc2)cc1Nc1nccc(-c2cccnc2)n1 [Imatinib]
IC50: 142 nM
